Measurements from the supplement of paper PMC10849652.
This is one part of the list.

Protein sequences, listed by entry. Tags and fused reporters are not part of them. Lines headed by an entry give the natural chain unless they say otherwise; changes in a name come on top.
UniProt Q96EP0: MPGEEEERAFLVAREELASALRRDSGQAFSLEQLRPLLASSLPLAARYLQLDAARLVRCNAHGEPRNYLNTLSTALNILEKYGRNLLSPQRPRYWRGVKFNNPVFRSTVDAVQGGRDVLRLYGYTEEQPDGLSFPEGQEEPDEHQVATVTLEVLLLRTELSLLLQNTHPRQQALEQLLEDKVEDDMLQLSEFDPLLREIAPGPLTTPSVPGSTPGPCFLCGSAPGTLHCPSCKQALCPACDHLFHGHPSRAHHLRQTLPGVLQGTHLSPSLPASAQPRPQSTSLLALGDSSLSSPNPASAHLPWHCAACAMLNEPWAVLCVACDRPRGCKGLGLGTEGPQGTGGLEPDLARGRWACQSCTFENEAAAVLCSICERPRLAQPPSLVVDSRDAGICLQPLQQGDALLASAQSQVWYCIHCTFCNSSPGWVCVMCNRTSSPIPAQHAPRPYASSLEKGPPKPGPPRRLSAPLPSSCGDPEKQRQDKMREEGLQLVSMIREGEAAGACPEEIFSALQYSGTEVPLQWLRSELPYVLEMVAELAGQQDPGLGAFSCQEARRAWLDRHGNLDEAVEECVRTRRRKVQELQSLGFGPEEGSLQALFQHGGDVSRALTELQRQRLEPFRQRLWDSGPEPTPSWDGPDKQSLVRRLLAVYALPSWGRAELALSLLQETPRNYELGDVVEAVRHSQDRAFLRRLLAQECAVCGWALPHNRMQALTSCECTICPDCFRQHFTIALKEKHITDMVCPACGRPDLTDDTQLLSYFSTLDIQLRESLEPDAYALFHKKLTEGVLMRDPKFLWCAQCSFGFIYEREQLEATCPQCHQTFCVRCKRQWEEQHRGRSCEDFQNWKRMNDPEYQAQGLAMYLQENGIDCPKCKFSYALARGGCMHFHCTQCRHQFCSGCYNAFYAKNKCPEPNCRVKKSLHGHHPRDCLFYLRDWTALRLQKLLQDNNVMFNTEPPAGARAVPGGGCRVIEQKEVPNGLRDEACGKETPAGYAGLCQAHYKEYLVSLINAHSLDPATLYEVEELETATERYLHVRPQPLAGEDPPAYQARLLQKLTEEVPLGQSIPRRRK
UniProt Q9BY78: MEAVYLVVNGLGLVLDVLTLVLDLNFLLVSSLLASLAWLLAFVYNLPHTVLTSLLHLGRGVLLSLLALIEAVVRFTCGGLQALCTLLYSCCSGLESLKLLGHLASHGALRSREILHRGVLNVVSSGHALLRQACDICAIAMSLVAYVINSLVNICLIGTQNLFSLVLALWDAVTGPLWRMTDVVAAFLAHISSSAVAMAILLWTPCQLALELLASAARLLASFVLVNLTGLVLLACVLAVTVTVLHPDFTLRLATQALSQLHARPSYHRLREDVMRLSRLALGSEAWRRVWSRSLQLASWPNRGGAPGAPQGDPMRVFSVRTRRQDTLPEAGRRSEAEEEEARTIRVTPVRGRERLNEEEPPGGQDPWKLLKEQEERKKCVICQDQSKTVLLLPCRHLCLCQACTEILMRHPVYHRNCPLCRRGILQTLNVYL
UniProt Q92834: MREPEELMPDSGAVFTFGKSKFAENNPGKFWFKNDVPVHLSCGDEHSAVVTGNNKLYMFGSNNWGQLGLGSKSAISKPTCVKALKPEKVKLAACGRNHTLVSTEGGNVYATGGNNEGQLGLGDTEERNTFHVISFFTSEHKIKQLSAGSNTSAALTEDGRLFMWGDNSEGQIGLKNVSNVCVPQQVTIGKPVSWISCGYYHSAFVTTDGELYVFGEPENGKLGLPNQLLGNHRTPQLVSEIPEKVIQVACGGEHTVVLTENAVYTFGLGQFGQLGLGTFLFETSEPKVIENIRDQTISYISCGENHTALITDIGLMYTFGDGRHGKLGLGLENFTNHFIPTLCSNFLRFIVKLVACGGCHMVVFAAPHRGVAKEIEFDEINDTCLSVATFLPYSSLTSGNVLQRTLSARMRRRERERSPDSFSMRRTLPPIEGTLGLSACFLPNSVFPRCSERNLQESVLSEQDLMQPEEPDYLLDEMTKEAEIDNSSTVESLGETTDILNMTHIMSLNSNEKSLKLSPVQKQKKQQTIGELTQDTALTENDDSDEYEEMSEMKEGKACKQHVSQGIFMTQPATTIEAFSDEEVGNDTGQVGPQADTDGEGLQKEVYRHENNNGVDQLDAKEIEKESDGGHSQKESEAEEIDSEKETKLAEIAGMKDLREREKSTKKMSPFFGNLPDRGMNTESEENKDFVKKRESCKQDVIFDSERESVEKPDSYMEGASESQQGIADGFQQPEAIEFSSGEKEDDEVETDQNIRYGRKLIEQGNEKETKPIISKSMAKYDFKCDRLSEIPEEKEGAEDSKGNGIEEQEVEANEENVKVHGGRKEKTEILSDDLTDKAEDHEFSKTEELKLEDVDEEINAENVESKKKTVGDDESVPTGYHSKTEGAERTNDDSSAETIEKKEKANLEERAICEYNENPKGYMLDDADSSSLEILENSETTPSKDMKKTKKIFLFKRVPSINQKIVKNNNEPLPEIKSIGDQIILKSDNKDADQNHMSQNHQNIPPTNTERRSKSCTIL
UniProt Q9BWH6: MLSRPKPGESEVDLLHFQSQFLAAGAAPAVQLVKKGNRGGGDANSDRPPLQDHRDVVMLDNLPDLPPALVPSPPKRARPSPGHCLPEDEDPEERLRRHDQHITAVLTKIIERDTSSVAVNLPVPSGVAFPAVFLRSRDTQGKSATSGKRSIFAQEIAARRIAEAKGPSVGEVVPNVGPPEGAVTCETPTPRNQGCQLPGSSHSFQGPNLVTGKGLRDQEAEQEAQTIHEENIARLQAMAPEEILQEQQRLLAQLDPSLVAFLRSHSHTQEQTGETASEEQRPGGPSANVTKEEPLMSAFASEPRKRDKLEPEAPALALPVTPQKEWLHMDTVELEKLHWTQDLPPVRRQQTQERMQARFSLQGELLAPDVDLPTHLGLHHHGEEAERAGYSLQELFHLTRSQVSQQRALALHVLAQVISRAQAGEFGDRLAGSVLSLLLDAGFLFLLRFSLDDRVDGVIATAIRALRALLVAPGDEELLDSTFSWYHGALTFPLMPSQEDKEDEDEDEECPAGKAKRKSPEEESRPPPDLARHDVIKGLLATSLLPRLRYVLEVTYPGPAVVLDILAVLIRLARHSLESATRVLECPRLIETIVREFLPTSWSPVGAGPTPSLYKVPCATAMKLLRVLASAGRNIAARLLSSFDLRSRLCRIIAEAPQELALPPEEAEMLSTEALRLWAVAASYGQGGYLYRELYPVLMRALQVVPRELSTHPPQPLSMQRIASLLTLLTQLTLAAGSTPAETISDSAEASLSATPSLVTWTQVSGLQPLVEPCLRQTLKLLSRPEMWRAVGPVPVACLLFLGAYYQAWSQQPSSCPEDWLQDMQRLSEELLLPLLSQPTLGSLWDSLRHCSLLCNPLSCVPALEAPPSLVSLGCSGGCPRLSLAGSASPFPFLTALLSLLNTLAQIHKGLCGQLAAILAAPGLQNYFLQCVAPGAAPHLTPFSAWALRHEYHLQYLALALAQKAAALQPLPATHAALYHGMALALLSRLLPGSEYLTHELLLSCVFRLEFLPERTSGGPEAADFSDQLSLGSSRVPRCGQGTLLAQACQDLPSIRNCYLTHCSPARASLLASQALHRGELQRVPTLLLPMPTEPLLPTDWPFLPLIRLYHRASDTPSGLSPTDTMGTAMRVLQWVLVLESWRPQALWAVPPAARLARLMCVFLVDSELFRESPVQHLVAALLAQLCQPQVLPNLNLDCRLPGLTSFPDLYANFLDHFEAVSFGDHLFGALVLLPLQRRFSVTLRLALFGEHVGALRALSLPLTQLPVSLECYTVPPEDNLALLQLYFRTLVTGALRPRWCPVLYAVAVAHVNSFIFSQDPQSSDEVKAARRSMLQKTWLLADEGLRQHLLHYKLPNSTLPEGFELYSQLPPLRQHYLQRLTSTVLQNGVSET
UniProt O75150, whole entry, looked up: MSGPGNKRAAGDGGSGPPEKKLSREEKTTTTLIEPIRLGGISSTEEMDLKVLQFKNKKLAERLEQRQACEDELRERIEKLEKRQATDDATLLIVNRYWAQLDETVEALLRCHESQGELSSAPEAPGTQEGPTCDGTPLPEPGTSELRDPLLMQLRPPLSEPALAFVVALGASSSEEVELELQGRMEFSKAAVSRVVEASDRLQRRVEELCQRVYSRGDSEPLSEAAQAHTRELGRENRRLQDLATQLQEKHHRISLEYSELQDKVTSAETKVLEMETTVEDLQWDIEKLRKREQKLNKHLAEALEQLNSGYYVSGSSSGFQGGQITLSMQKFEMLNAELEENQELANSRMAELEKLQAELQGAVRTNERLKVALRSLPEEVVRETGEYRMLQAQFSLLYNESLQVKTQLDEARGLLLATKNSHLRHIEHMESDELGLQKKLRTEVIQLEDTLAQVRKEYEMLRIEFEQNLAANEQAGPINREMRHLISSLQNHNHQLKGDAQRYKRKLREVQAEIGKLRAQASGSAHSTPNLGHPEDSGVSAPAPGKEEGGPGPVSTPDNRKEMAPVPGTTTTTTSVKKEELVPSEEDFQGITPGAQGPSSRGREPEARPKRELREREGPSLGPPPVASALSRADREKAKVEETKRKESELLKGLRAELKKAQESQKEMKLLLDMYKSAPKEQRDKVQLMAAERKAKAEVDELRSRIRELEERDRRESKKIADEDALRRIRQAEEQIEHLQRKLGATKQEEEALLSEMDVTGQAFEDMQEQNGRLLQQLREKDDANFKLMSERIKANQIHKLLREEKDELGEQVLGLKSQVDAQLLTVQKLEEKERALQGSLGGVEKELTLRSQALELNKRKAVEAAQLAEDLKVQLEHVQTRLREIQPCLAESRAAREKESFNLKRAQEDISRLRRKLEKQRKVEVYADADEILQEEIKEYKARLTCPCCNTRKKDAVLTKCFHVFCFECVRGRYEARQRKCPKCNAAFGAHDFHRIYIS
UniProt P51812, whole entry, looked up: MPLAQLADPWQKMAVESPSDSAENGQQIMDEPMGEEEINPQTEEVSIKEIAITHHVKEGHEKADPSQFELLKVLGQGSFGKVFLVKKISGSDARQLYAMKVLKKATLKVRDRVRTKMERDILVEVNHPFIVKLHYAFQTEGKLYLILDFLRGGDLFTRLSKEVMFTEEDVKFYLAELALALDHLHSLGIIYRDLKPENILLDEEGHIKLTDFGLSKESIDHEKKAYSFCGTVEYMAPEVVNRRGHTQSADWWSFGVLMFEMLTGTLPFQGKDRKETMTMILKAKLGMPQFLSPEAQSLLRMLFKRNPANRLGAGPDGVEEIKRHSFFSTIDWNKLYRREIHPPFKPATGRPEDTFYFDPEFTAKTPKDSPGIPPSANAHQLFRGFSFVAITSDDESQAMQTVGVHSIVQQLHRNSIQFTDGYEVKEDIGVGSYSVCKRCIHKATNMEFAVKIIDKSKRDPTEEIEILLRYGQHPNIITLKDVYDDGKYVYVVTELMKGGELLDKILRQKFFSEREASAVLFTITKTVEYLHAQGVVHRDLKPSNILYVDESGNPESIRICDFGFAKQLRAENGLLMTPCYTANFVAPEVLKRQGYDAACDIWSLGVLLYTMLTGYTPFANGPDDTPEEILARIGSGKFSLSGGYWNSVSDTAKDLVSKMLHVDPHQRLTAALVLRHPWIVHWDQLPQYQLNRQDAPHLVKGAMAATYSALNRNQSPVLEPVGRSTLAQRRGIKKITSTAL
UniProt Q6P087: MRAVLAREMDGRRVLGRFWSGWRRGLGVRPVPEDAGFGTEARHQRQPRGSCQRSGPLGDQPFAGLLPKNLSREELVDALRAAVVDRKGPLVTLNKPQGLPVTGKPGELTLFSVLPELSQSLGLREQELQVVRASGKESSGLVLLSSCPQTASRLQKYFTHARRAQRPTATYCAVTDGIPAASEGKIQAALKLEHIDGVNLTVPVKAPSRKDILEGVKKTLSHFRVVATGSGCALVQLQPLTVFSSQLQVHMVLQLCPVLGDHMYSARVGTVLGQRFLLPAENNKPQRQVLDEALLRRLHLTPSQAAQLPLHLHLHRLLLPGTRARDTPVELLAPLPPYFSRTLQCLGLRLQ
UniProt Q9UBS0: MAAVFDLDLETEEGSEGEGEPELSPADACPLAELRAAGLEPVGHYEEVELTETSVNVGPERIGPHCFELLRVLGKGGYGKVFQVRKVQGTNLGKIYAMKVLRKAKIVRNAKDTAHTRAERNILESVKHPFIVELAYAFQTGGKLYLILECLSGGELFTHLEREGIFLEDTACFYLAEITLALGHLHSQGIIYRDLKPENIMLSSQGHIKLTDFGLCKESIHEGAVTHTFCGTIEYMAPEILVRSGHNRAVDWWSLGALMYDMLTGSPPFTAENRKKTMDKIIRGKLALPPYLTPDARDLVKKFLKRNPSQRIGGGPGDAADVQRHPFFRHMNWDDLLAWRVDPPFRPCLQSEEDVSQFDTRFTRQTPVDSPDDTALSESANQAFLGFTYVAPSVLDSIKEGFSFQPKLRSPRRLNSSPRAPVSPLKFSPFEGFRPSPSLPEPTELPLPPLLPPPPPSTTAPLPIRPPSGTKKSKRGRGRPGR

How the values were obtained:
Assay in all cases: log2 fold change, soluble protein after heating vs DMSO (PISA); higher = thermal stabilisation; K562 cells, 10 uM, 30 min; active = over 0.2 and 3.5 SD of the protein, either way, in both replicates (recomputed)
erlotinib = compound: C#Cc1cccc(Nc2ncnc3cc(OCCOC)c(OCCOC)cc23)c1 [erlotinib]
In short: (§1)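 For each measurement, 10 μM compound was applied for 30 min to K562 cells at 2×10^6 cells/mL. Aliquots were heated for 3 min across 48°C-58°C, pooled, and extracted in PBS with 0.5% NP-40 at 4°C; the supernatant after 21,000xg for 90 min was soluble protein. This was quantified by TMTpro 16plex LC-MS/MS with channel sums equalised, and thermal stability was reported relative to control samples from duplicates, on a log2 fold-change scale.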

[1] = compound: C/C(=N\NC(=O)C1=CC(=CC=C1)S(=O)(=O)N2CCOCC2)/C3=C(C=CC(=C3)Cl)O
In short: as §1

[2] = compound: C1=CC(=C(C=C1Cl)C2=NC3=NC=CN=C3C(=N2)NC4=CC=NC=C4)F
In short: as §1

[3] = compound: C1=CC(=CC=C1C2=NC3=C(N2)C=C(C=C3)C(=O)N)OC4=CC=C(C=C4)Cl
In short: as §1

[4] = compound: C1=CC2=C(C=CC(=C2)/C=C\3/C(=O)NC(=NCC4=CC=CS4)S3)N=C1
In short: as §1

[5] = compound: C1=CC2=NC=CN=C2C=C1/C=C/3\C(=O)NC(=O)S3
In short: as §1

[6] = compound: C1=CC=C(C=C1)C2=NC(=C(N2)C3=CC=NC=C3)C4=CC(=C(C=C4)Cl)O
In short: as §1

[7] = compound: C1=CC=C2C(=C1)C3=NNC4=CC=CC(=C43)C2=O
In short: as §1

[8] = compound: C1CCN(C1)C(=O)NC2=CC=CC(=C2)NC3=NC=C(C(=N3)NCCC4=CN=CN4)Br
In short: as §1

[9] = compound: C1CN(CCC1(CC2=CC=C(C=C2)Cl)N)C3=NC=NC4=C3C=CN4
In short: as §1

Measured: log2 fold change

RPL12 (UniProt P30050)
inactive: erlotinib -0.264 | [1] -0.386 | [2] -0.998 | [3] 0.013 | [4] -0.219 | [5] -0.022 | [6] -0.125 | [7] -0.02 | [8] 0.066 | [9] -0.207

RNF4 (UniProt P78317)
inactive: erlotinib 0 | [1] -0.325 | [2] 0.075 | [3] 0.237 | [4] -0.116 | [5] -0.22 | [7] -0.076 | [8] -0.197 | [9] 0.045

RPS7 (UniProt P62081)
inactive: erlotinib -0.174 | [1] -0.193 | [2] -0.46 | [3] 0.006 | [4] -0.083 | [5] -0.074 | [6] -0.056 | [7] -0.027 | [8] 0.067 | [9] -0.136

RRN3 (UniProt Q9NYV6)
inactive: erlotinib 0.093 | [2] -0.668 | [3] 0.162

RPAIN isoform 8 (UniProt Q86UA6)
inactive: [1] 0.205 | [2] 0.085 | [4] -0.03 | [5] 0.048 | [6] 0.083 | [7] 0.009 | [8] -0.035 | [9] -0.002

RPS6KA5 (UniProt O75582)
inactive: erlotinib 0.239 | [2] -0.079 | [3] -0.234 | [6] -0.091

RPL7L1 (UniProt Q6DKI1)
inactive: [2] -0.628 | [5] 0.053 | [6] -0.051

RPLP0 (UniProt F8VWV4)
inactive: [1] -0.428 | [2] -0.595 | [4] 0.099 | [7] -0.342 | [8] 0.194 | [9] -0.115

RNF31 (UniProt Q96EP0)
inactive: erlotinib 0.111 | [2] -0.19 | [3] 0.092 | [8] -0.125 | [9] -0.045

RNF26 (UniProt Q9BY78)
inactive: [5] -0.08 | [6] -0.073

RPL37 (UniProt P61927)
inactive: erlotinib -0.216 | [1] -0.235 | [3] 0.041 | [4] -0.193 | [5] 0.019 | [6] -0.12 | [7] 0.016 | [8] 0.076 | [9] -0.162

RPGR (UniProt Q92834)
inactive: [2] 0.068 | [8] -0.343 | [9] 0.293

RPE (UniProt Q96AT9)
inactive: erlotinib 0.013 | [1] 0.106 | [2] 0.115 | [3] 0.083 | [4] 0.036 | [5] 0.04 | [6] 0.01 | [7] 0.037 | [8] 0.011 | [9] 0.05

RPAP1 (UniProt Q9BWH6)
inactive: erlotinib 0.024 | [1] 0.007 | [2] 0.035 | [3] 0.015 | [4] -0.007 | [5] 0.024 | [6] 0.025 | [7] 0.017 | [8] -0.023 | [9] 0.044

RNFT1 (UniProt Q5M7Z0)
inactive: erlotinib 0.02 | [2] -0.109 | [3] -0.245 | [6] -0.048

RNF40 (UniProt O75150)
inactive: erlotinib -0.08 | [3] -0.115 | [5] 0.042 | [6] 0.051 | [8] -0.069 | [9] 0.104

RPS6KA3 (UniProt P51812)
active: [7] -0.345
inactive: erlotinib -0.024 | [1] 0.08 | [2] 0.018 | [3] 0.072 | [5] 0.061 | [6] -0.043 | [8] -0.085 | [9] -0.017

RPL22L1 (UniProt Q6P5R6)
inactive: erlotinib -0.051 | [2] -0.366 | [3] 0.013

RPL10 (UniProt F8W7C6)
inactive: erlotinib -0.147 | [2] 0.04 | [3] 0.145 | [5] 0.197 | [8] 0.038 | [9] -0.191

RPRD1A (UniProt Q96P16)
inactive: erlotinib 0.141 | [1] 0.217 | [2] 0.076 | [3] -0.015 | [4] 0.222 | [6] 0.168 | [7] 0.123 | [8] -0.131 | [9] 0.057

RPS19 (UniProt M0R2L9)
inactive: [1] -0.054 | [4] -0.246 | [7] 0.732 | [8] 0.522 | [9] -0.095

RPS25 (UniProt P62851)
inactive: erlotinib -0.083 | [1] -0.071 | [2] -0.276 | [3] 0.077 | [4] -0.075 | [5] -0.091 | [6] -0.067 | [7] 0.033 | [8] 0.061 | [9] -0.141

RPL18 (UniProt Q07020)
inactive: erlotinib -0.385 | [1] -0.416 | [2] -0.976 | [3] 0.094 | [4] -0.253 | [5] -0.037 | [6] -0.171 | [7] 0.017 | [8] 0.084 | [9] -0.354

RPUSD3 (UniProt Q6P087)
inactive: [1] 0.134 | [4] -0.214 | [7] -0.198

RPS3A (UniProt D6R9B6)
inactive: [1] -0.359 | [4] 0.198 | [7] -0.243 | [8] 0.303 | [9] 0.034

ROGDI (UniProt Q9GZN7)
inactive: [6] -0.024

RNF41 (UniProt Q9H4P4)
inactive: [1] 0.043 | [4] -0.074 | [5] -0.146 | [7] -0.002

RPL7 (UniProt P18124)
inactive: erlotinib -0.479 | [1] -0.385 | [2] -1.17 | [3] 0.085 | [4] -0.194 | [5] -0.057 | [6] -0.111 | [7] 0.057 | [8] 0.026 | [9] -0.433

Retrieved one by one from above, two records:
RPL10 (UniProt F8W7C6)
inactive: erlotinib -0.147 | [2] 0.04 | [3] 0.145 | [5] 0.197 | [8] 0.038 | [9] -0.191

RNF41 (UniProt Q9H4P4)
inactive: [1] 0.043 | [4] -0.074 | [5] -0.146 | [7] -0.002

(next part)

ROS1 (UniProt P08922)
inactive: erlotinib 0.201 | [1] 0.025 | [3] 0.035 | [4] 0.241 | [5] 0.128 | [7] 0.043

RPS5 (UniProt P46782)
inactive: erlotinib -0.149 | [1] -0.087 | [2] -0.193 | [3] 0.038 | [4] -0.047 | [5] -0.045 | [6] -0.003 | [7] 0.008 | [8] 0.022 | [9] -0.125

RREB1 isoform 2 (UniProt Q92766)
inactive: erlotinib -0.035 | [2] -0.179 | [3] 0.036 | [5] -0.084 | [6] 0.032 | [8] 0.114 | [9] -0.127

RPS7, A0A2R8Y623
inactive: erlotinib 0.191 | [1] -0.203 | [3] -0.165 | [4] 0.465 | [5] -0.486 | [6] -0.803 | [7] -0.409 | [8] -0.568 | [9] -0.035

RPP30 (UniProt Q5VU11)
inactive: erlotinib -0.443 | [3] -0.015 | [5] 0.068 | [6] 0.029

RPF2 (UniProt Q9H7B2)
inactive: erlotinib 0.267 | [3] -0.001

RPS3 (UniProt E9PJN9)
inactive: [6] 0.203 | [8] 0.021 | [9] -0.151

RPUSD4 (UniProt Q96CM3)
inactive: [1] -0.134 | [2] -0.138 | [4] -0.017 | [6] -0.034 | [7] 0.061 | [8] -0.008 | [9] -0.158

RPS6KB2 (UniProt Q9UBS0)
inactive: erlotinib 0.256 | [2] -0.016 | [3] -0.039 | [8] -0.245 | [9] -0.146
